Measurements reported in PubChem BioAssay AID504784 (Drosophila RNAi Screening Center, 2011)

Aim: 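Search for regulators of lipid droplet storage in oleate-fed fly cells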 (primary screen)
Cell system: Drosophila Kc167 embryonic cells
Reagents: long dsRNA against Drosophila genes, about 250 ng dsRNA per well
Timing: 4 days
Treatment: cells fed 400 µM oleic acid bound to BSA
Measured: 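Microscope images give a droplet-to-nucleus area ratio, taken as log and converted to a screen-wide B-score; higher values mean greater lipid storage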
Direction: droplet/nuclear area B-score: higher = more stored lipid (overstorage)
The deposit covers about 17,000 reagents; this is an unselected part of those that have a named target and a result. 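Each column is one replicate's B-score; the combined score over replicates was not deposited, so single values may mislead.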 No sequences are given here.

dgt4 (dim gamma-tubulin 4) [DRSC18659] → droplet/nuclear area B-score, replicate 1: -0.723; droplet/nuclear area B-score, replicate 2: 0.56
CG4467 [DRSC15585] → droplet/nuclear area B-score, replicate 1: 0.301; droplet/nuclear area B-score, replicate 2: -1.72
l(3)05822 (lethal (3) 05822) [DRSC16202] → droplet/nuclear area B-score, replicate 1: -1.98; droplet/nuclear area B-score, replicate 2: -0.192
clu (clueless) [DRSC07181] → droplet/nuclear area B-score, replicate 1: -0.792; droplet/nuclear area B-score, replicate 2: 1.31
Syp (Syncrip) [DRSC13444] → droplet/nuclear area B-score, replicate 1: 1.79; droplet/nuclear area B-score, replicate 2: 0.491
Syp (Syncrip) [DRSC15286] → droplet/nuclear area B-score, replicate 1: 0.933; droplet/nuclear area B-score, replicate 2: -0.821
ND-20L (NADH dehydrogenase (ubiquinone) 20 kDa subunit-like) [DRSC15414] → droplet/nuclear area B-score, replicate 1: -0.645; droplet/nuclear area B-score, replicate 2: 1.38
CG16953 [DRSC15167] → droplet/nuclear area B-score, replicate 1: -0.269; droplet/nuclear area B-score, replicate 2: -0.555
CG5024 [DRSC15698] → droplet/nuclear area B-score, replicate 1: -0.131; droplet/nuclear area B-score, replicate 2: 1.28
CG30172 [DRSC21519] → droplet/nuclear area B-score, replicate 1: -0.185; droplet/nuclear area B-score, replicate 2: 0.789
CG14292 [DRSC14772] → droplet/nuclear area B-score, replicate 1: -0.0296; droplet/nuclear area B-score, replicate 2: 0.873
CG30268 [DRSC21983] → droplet/nuclear area B-score, replicate 1: -0.706; droplet/nuclear area B-score, replicate 2: -0.614
CG9004 [DRSC08617] → droplet/nuclear area B-score, replicate 1: -0.234; droplet/nuclear area B-score, replicate 2: -0.0429
HemK1 (HemK methyltransferase 1) [DRSC03253] → droplet/nuclear area B-score, replicate 1: 0.307; droplet/nuclear area B-score, replicate 2: -0.636
Mdh1 (retired record) [DRSC02846] → droplet/nuclear area B-score, replicate 1: -0.736; droplet/nuclear area B-score, replicate 2: 0.0326
inaD (inactivation no afterpotential D) [DRSC04694] → droplet/nuclear area B-score, replicate 1: -0.529; droplet/nuclear area B-score, replicate 2: 1.22
CG8757 [DRSC11039] → droplet/nuclear area B-score, replicate 1: -0.463; droplet/nuclear area B-score, replicate 2: 0.2
CG11076 [DRSC17197] → droplet/nuclear area B-score, replicate 1: 0.548; droplet/nuclear area B-score, replicate 2: -0.408
CG18302 [DRSC02663] → droplet/nuclear area B-score, replicate 1: -2.39; droplet/nuclear area B-score, replicate 2: -0.142
CG31265 [DRSC15745] → droplet/nuclear area B-score, replicate 1: 0.798; droplet/nuclear area B-score, replicate 2: -0.0227
Cdc27 (Cell division cycle 27) [DRSC11112] → droplet/nuclear area B-score, replicate 1: -0.784; droplet/nuclear area B-score, replicate 2: 0.394
corto [DRSC12375] → droplet/nuclear area B-score, replicate 1: 0.0483; droplet/nuclear area B-score, replicate 2: -1.08
corto [DRSC22279] → droplet/nuclear area B-score, replicate 1: 0.85; droplet/nuclear area B-score, replicate 2: 0.691
corto [DRSC22988] → droplet/nuclear area B-score, replicate 1: -0.295; droplet/nuclear area B-score, replicate 2: -0.574
CG16781 [DRSC18117] → droplet/nuclear area B-score, replicate 1: -1.77; droplet/nuclear area B-score, replicate 2: -1.72
CG17549 [DRSC02625] → droplet/nuclear area B-score, replicate 1: -2.86; droplet/nuclear area B-score, replicate 2: -0.912
BBS4 (Bardet-Biedl syndrome 4) [DRSC06352] → droplet/nuclear area B-score, replicate 1: 0.524; droplet/nuclear area B-score, replicate 2: -0.74
